Literature values as cited in US20140328861A1, “Combination of CRTH2 Antagonist and a Proton Pump Inhibitor for the Treatment of Eosinophilic Esophagitis” (Atopix Therapeutics Limited, priority 2011, published 2014).
For at least one compound, name, drawing or mass did not settle the structure.

Key:
[1] = tested on: children and adults with EoE; details: placebo-controlled; cited from earlier work
[2] = tested on: tissue eosinophilia in eosinophilic esophagitis; details: 0.25 mg twice-a-day, compared to placebo; cited from earlier work

Row | SMILES | reduction of eosinophilic load and symptoms as induction treatment [1] | maintenance of remission / suppression of tissue eosinophilia [2]
1 | C[C@@H]1C[C@H]2[C@@H]3C[C@H](F)C4=CC(=O)C=C[C@]4(C)[C@@]3(F)[C@@H](O)C[C@]2(C)[C@@]1(O)C(=O)SCF [fluticasone] | effective | –
2 | CCCC1O[C@@H]2C[C@H]3[C@@H]4CCC5=CC(=O)C=C[C@]5(C)[C@H]4[C@@H](O)C[C@]3(C)[C@]2(C(=O)CO)O1 (stereo partly drawn) [Budesonide] | effective | more effective than placebo but is only partially effective in suppressing tissue eosinophilia
